# Experimental data published in publication PMC10819386.
# Protein sequences, listed by entry. Tags and fused reporters are not part of them. Residues count along the entry.
# UniProt P48643: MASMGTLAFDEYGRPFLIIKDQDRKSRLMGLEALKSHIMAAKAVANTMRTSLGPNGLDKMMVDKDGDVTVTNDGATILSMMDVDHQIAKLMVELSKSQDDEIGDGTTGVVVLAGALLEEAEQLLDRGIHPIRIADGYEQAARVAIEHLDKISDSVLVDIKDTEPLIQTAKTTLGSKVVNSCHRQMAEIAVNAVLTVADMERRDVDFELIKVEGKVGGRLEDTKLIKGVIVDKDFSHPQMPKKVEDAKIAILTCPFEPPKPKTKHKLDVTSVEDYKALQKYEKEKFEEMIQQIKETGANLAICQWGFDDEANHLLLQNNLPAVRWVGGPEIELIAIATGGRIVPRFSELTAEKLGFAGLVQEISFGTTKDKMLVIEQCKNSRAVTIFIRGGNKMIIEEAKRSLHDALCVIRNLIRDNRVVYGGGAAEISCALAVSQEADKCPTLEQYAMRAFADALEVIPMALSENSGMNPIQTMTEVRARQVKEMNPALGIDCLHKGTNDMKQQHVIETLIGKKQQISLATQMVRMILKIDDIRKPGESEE
# UniProt P04977, residues 35-269: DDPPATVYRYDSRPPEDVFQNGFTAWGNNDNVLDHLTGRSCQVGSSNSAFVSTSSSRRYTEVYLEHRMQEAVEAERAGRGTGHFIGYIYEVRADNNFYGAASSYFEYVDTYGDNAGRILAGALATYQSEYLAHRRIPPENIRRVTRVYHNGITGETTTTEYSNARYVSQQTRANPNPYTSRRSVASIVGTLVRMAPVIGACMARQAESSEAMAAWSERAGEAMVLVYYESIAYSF
# Results are given in words; binding and its absence hold for the method and conditions named. In cells and extracts the contact can be indirect. Some results given as binding are weak or reduced against the parent protein; the word gives no strength.
# Molecular target: TRiC/CCT chaperonin complex subunit CCT5 (human (endogenous in A549)) (UniProt P48643)
# Assay: proximity ligation; A549 cells pre-incubated 30 min with 200 µM HSF1A or DMSO or left without, then 100 ng/mL PT for 4 h at 37 °C; fixed, permeabilized; rabbit anti-PT and mouse anti-CCT5 primary antibodies, Duolink PLA; signals counted per cell
substance,measurement,value
Pertussis toxin enzyme subunit PTS1 (from UniProt P04977 35-269),binding,binds
